The labels stand for the following.
T1: 3xFLAG-tagged PP6c ΔL mutant (Leu 305 deleted) (human) (UniProt O00743)
T1 sequence: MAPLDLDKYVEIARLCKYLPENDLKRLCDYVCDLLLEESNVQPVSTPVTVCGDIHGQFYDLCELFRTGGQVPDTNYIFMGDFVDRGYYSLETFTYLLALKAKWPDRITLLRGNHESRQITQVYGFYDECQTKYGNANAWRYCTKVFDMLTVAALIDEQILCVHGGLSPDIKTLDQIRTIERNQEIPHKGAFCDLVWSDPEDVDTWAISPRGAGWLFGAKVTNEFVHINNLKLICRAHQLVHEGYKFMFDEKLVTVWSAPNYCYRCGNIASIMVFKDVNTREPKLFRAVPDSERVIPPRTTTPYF

T2: 3xFLAG-tagged PP6c, wild type (human) (UniProt O00743)
T2 sequence: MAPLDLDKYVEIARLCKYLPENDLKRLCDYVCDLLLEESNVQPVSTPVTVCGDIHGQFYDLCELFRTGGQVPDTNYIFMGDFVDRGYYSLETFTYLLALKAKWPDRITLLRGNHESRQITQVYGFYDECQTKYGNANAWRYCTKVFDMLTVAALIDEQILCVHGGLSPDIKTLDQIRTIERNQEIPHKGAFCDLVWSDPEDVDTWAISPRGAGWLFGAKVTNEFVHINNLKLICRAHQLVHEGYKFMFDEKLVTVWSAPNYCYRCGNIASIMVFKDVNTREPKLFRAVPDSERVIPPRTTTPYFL

B1: ANKRD44, Ankyrin repeat subunit of PP6 (protein, UniProt Q8N8A2 1-993)
chain: MAVLKLTDQPPLVQAIFSGDPEEIRMLIHKTEDVNTLDSEKRTPLHVAAFLGDAEIIELLILSGARVNAKDNMWLTPLHRAVASRSEEAVQVLIKHSADVNARDKNWQTPLHVAAANKAVKCAEVIIPLLSSVNVSDRGGRTALHHAALNGHVEMVNLLLAKGANINAFDKKDRRALHWAAYMGHLDVVALLINHGAEVTCKDKKGYTPLHAAASNGQINVVKHLLNLGVEIDEINVYGNTALHIACYNGQDAVVNELIDYGANVNQPNNNGFTPLHFAAASTHGALCLELLVNNGADVNIQSKDGKSPLHMTAVHGRFTRSQTLIQNGGEIDCVDKDGNTPLHVAARYGHELLINTLITSGADTAKCGIHSMFPLHLAALNAHSDCCRKLLSSGFEIDTPDKFGRTCLHAAAAGGNVECIKLLQSSGADFHKKDKCGRTPLHYAAANCHFHCIETLVTTGANVNETDDWGRTALHYAAASDMDRNKTILGNAHDNSEELERARELKEKEATLCLEFLLQNDANPSIRDKEGYNSIHYAAAYGHRQCLELLLERTNSGFEESDSGATKSPLHLAAYNGHHQALEVLLQSLVDLDIRDEKGRTALDLAAFKGHTECVEALINQGASIFVKDNVTKRTPLHASVINGHTLCLRLLLEIADNPEAVDVKDAKGQTPLMLAVAYGHIDAVSLLLEKEANVDTVDILGCTALHRGIMTGHEECVQMLLEQEVSILCKDSRGRTPLHYAAARGHATWLSELLQMALSEEDCCFKDNQGYTPLHWACYNGNENCIEVLLEQKCFRKFIGNPFTPLHCAIINDHGNCASLLLGAIDSSIVSCRDDKGRTPLHAAAFADHVECLQLLLRHSAPVNAVDNSGKTALMMAAENGQAGAVDILVNSAQADLTVKDKDLNTPLHLACSKGHEKCALLILDKIQDESLINEKNNALQTPLHVAARNGLKVVVEELLAKGACVLAVDENASRSNGPRSTPGTAVQKEE
B2: SAPS2, Sit4-associated protein subunit of PP6 (protein, UniProt O75170 1-966)
chain: MFWKFDLNTTSHVDKLLDKEHVTLQELMDEDDILQECKAQNQKLLDFLCRQQCMEELVSLITQDPPLDMEEKVRFKYPNTACELLTCDVPQISDRLGGDESLLSLLYDFLDHEPPLNPLLASFFSKTIGNLIARKTEQVITFLKKKDKFISLVLKHIGTSALMDLLLRLVSCVEPAGLRQDVLHWLNEEKVIQRLVELIHPSQDEDRQSNASQTLCDIVRLGRDQGSQLQEALEPDPLLTALESQDCVEQLLKNMFDGDRTESCLVSGTQVLLTLLETRRVGTEGLVDSFSQGLERSYAVSSSVLHGIEPRLKDFHQLLLNPPKKKAILTTIGVLEEPLGNARLHGARLMAALLHTNTPSINQELCRLNTMDLLLDLFFKYTWNNFLHFQVELCIAAILSHAAREERTEASGSESRVEPPHENGNRSLETPQPAASLPDNTMVTHLFQKCCLVQRILEAWEANDHTQAAGGMRRGNMGHLTRIANAVVQNLERGPVQTHISEVIRGLPADCRGRWESFVEETLTETNRRNTVDLVSTHHLHSSSEDEDIEGAFPNELSLQQAFSDYQIQQMTANFVDQFGFNDEEFADQDDNINAPFDRIAEINFNIDADEDSPSAALFEACCSDRIQPFDDDEDEDIWEDSDTRCAARVMARPRFGAPHASESCSKNGPERGGQDGKASLEAHRDAPGAGAPPAPGKKEAPPVEGDSEGAMWTAVFDEPANSTPTAPGVVRDVGSSVWAAGTSAPEEKGWAKFTDFQPFCCSESGPRCSSPVDTECSHAEGSRSQGPEKASQASYFAVSPASPCAWNVCVTRKAPLLASDSSSSGGSHSEDGDQKAASAMDAVSRGPGREAPPLPTVARTEEAVGRVGCADSRLLSPACPAPKEVTAAPAVAVPPEATVAITTALSKAGPAIPTPAVSSALAVAVPLGPIMAVTAAPAMVATLGTVTKDGKTDAPPEGAALNGPV
B3: SAPS1, Sit4-associated protein subunit of PP6 (protein, UniProt Q9UPN7 1-881)
chain: MFWKFDLHTSSHLDTLLEREDLSLPELLDEEDVLQECKVVNRKLLDFLLQPPHLQAMVAWVTQEPPDSGEERLRYKYPSVACEILTSDVPQINDALGADESLLNRLYGFLQSTGSLNPLLASFFSKVMGILINRKTDQLVSFLRKKDDFVDLLLQHIGTSAIMDLLLRLLTCVERPQLRQDVVNWLNEEKIVQRLIEQIHPSKDENQHSNASQSLCDIIRLSREQMIQVQDSPEPDQLLATLEKQETIEQLLSNMFEGEQSQSVIVSGIQVLLTLLEPRRPRSESVTVNSFFSSVDGQLELLAQGALESTVSSVGALHALRPRLSCFHQLLLEPPKLEPLQMTWGMLAPPLGNTRLHVVKLLASALSANDAALTHELLALDVPNTMLDLFFHYVFNNFLHAQVEGCVSTMLSLGPPPDSSPETPIQNPVVKHLLQQCRLVERILTSWEENDRVQCAGGPRKGYMGHLTRVAGALVQNTEKGPNAEQLRQLLKELPSEQQEQWEAFVSGPLAETNKKNMVDLVNTHHLHSSSDDEDDRLKEFNFPEEAVLQQAFMDFQMQRMTSAFIDHFGFNDEEFGEQEESVNAPFDKTANITFSLNADDENPNANLLEICYKDRIQQFDDDEEEEDEEEAQGSGESDGEDGAWQGSQLARGARLGQPPGVRSGGSTDSEDEEEEDEEEEEDEEGIGCAARGGATPLSYPSPGPQPPGPSWTATFDPVPTDAPTSPRVSGEEELHTGPPAPQGPLSVPQGLPTQSLASPPARDALQLRSQDPTPPSAPQEATEGSKVTEPSAPCQALVSIGDLQATFHGIRSAPSSSDSATRDPSTSVPASGAHQPPQTTEGEKSPEPLGLPQSQSAQALTPPPIPNGSAPEGPASPGSQ
B4: SAPS3, Sit4-associated protein subunit of PP6 (protein, UniProt Q5H9R7 1-873)
chain: MFWKFDLHSSSHIDTLLEREDVTLKELMDEEDVLQECKAQNRKLIEFLLKAECLEDLVSFIIEEPPQDMDEKIRYKYPNISCELLTSDVSQMNDRLGEDESLLMKLYSFLLNDSPLNPLLASFFSKVLSILISRKPEQIVDFLKKKHDFVDLIIKHIGTSAIMDLLLRLLTCIEPPQPRQDVLNWLNEEKIIQRLVEIVHPSQEEDRHSNASQSLCEIVRLSRDQMLQIQNSTEPDPLLATLEKQEIIEQLLSNIFHKEKNESAIVSAIQILLTLLETRRPTFEGHIEICPPGMSHSACSVNKSVLEAIRGRLGSFHELLLEPPKKSVMKTTWGVLDPPVGNTRLNVIRLISSLLQTNTSSINGDLMELNSIGVILNMFFKYTWNNFLHTQVEICIALILASPFENTENATITDQDSTGDNLLLKHLFQKCQLIERILEAWEMNEKKQAEGGRRHGYMGHLTRIANCIVHSTDKGPNSALVQQLIKDLPDEVRERWETFCTSSLGETNKRNTVDLVTTCHIHSSSDDEIDFKETGFSQDSSLQQAFSDYQMQQMTSNFIDQFGFNDEKFADQDDIGNVSFDRVSDINFTLNTNESGNIALFEACCKERIQQFDDGGSDEEDIWEEKHIAFTPESQRRSSSGSTDSEESTDSEEEDGAKQDLFEPSSANTEDKMEVDLSEPPNWSANFDVPMETTHGAPLDSVGSDVWSTEEPMPTKETGWASFSEFTSSLSTKDSLRSNSPVEMETSTEPMDPLTPSAAALAVQPEAAGSVAMEASSDGEEDAESTDKVTETVMNGGMKETLSLTVDAKTETAVFKSEEGKLSTSQDAACKDAEECPETAEAKCAAPRPPSSSPEQRTGQPSAPGDTSVNGPV
B5: ANKRD28, Ankyrin repeat subunit of PP6 (protein, UniProt O15084 1-1053)
chain: MAFLKLRDQPSLVQAIFNGDPDEVRALIFKKEDVNFQDNEKRTPLHAAAYLGDAEIIELLILSGARVNAKDSKWLTPLHRAVASCSEEAVQVLLKHSADVNARDKNWQTPLHIAAANKAVKCAEALVPLLSNVNVSDRAGRTALHHAAFSGHGEMVKLLLSRGANINAFDKKDRRAIHWAAYMGHIEVVKLLVSHGAEVTCKDKKSYTPLHAAASSGMISVVKYLLDLGVDMNEPNAYGNTPLHVACYNGQDVVVNELIDCGAIVNQKNEKGFTPLHFAAASTHGALCLELLVGNGADVNMKSKDGKTPLHMTALHGRFSRSQTIIQSGAVIDCEDKNGNTPLHIAARYGHELLINTLITSGADTAKRGIHGMFPLHLAALSGFSDCCRKLLSSGFDIDTPDDFGRTCLHAAAAGGNLECLNLLLNTGADFNKKDKFGRSPLHYAAANCNYQCLFALVGSGASVNDLDERGCTPLHYAATSDTDGKCLEYLLRNDANPGIRDKQGYNAVHYSAAYGHRLCLQLIASETPLDVLMETSGTDMLSDSDNRATISPLHLAAYHGHHQALEVLVQSLLDLDVRNSSGRTPLDLAAFKGHVECVDVLINQGASILVKDYILKRTPIHAAATNGHSECLRLLIGNAEPQNAVDIQDGNGQTPLMLSVLNGHTDCVYSLLNKGANVDAKDKWGRTALHRGAVTGHEECVDALLQHGAKCLLRDSRGRTPIHLSAACGHIGVLGALLQSAASMDANPATADNHGYTALHWACYNGHETCVELLLEQEVFQKTEGNAFSPLHCAVINDNEGAAEMLIDTLGASIVNATDSKGRTPLHAAAFTDHVECLQLLLSHNAQVNSVDSTGKTPLMMAAENGQTNTVEMLVSSASAELTLQDNSKNTALHLACSKGHETSALLILEKITDRNLINATNAALQTPLHVAARNGLTMVVQELLGKGASVLAVDENGYTPALACAPNKDVADCLALILATMMPVSSSSPLSSLTFNAINRYTNTSKTVSFEALPIMRNEPSSYCSFNNIGGEQEYLYTDVDELNDSDSETY

These are yes or no findings as the source states them, for the method shown. In cells and extracts the contact can be indirect. A yes stands for co-enrichment or nearness to the bait. Other partners may have been found. Sequences can lack the tags named with a protein.

The target in one assay is T1, 3xFLAG-tagged PP6c ΔL mutant (Leu 305 deleted) (human). Description: affinity purification with mass spectrometry; 3xFLAG-tagged catalytic subunit (WT or ΔL) transfected in FreeStyle 293F cells; FLAG M2 affinity gel, 3 h at 4 °C; lysis and wash buffer 50 mM Tris pH 7.5, 500 mM NaCl, 0.5% Triton X-100; eluted with 3XFLAG peptide; label-free quantitative LC-MS/MS on unique peptides, three replicates.
For B1, the binding result is listed as “binds”.
For the molecule B2, the binding result is listed as “binds”.
On to B3, for which the binding result was “binds”.
The same measure, in the same setting: under B4 stands “binds”; under B5, “binds”.

For the next assay, the target named is T2, 3xFLAG-tagged PP6c, wild type (human). The description is as above.
On to B1, for which the binding entry is listed as “binds”.
On the same count and under the same terms, under B2 stands “binds”; under B3, “binds”.
On the same count and under the same terms, the entry for B4 is “binds”.
Still for that read-out and setting: under B5 stands “binds”.
